Laboratory results published in patent publication US5455228A, “Peptidase resistant thrombin receptor peptide ligand” (The Research Foundation of State University of New York, priority 1993, dated 1995).
Values joined by “and” are separate entries in the source; they are usually repeats but may differ in a detail not shown here. Identical values can stand only once. “Also recorded” adds a separate entry of the source. At least one peptide structure holds a part that was inferred or is arguable (an end, a ring closure or a residue). Square brackets hold non-standard residues; d marks the D form. Ends that are not written are not given here. Peptide text beside a SMILES is read from it.

By UniProt entry, the sequences of proteins in these tests, tags left out. Where a name states a change or a piece, a line headed by the entry shows the natural chain unless it says otherwise.
UniProt P15144: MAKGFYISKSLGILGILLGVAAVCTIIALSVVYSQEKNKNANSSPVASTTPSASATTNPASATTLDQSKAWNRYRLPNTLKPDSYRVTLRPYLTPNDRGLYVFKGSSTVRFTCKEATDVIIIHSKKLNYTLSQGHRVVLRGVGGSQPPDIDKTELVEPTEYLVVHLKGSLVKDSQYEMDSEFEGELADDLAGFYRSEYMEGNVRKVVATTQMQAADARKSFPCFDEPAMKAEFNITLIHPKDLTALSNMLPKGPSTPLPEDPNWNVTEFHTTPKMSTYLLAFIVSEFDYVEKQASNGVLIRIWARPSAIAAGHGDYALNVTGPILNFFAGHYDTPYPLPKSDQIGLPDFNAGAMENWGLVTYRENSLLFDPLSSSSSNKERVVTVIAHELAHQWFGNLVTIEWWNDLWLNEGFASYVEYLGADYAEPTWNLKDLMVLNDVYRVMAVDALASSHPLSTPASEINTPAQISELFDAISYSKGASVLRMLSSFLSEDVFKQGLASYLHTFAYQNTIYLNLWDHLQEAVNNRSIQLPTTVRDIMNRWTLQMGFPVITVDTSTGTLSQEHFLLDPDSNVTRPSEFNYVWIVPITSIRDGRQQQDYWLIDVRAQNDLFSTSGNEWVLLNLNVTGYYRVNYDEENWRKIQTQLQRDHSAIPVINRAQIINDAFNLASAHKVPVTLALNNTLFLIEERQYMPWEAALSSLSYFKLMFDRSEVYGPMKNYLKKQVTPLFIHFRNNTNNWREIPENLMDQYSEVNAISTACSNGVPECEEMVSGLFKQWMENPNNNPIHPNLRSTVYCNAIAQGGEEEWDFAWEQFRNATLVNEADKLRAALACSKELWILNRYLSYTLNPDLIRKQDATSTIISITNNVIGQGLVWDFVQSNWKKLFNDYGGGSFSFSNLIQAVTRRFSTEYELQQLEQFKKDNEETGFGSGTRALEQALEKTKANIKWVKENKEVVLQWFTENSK

Assays:
[1] = target: T1, plasma aminopeptidase M (Homo sapiens, UniProt P15144); test: Loss of peptide platelet aggregating activity during plasma incubation; assay type: in vitro ADME; conditions: 37° C., 2 hours
T1 construct: from tissue; host or cells: human citrated platelet-poor plasma
Description: (§1) Platelet Aggregation. Platelet Rich Plasma (hereinafter "PRP") was obtained from human blood anticoagulated with sodium citrate (0.01 volume of 40% trisodium citrate) or acid-citrate-dextrose (hereinafter "ACD") solution A (ACD-A; 8.5 mL of blood: 1.5 mL of ACD-A) by centrifugation at 700 g for 3.5 min. at 22° C. Platelet-poor plasma (hereinafter "PPP") was obtained by centrifuging the PRP at 2000g for 8 min. at 22° C. The pH of the citrated PRP after preparation was about 7.7 whereas the pH of the ACD-A PRP was about 7.0. The pH of the PRP was adjusted, when necessary with 1M NaOH or 1M HCl and maintained at about 7.70. Platelet aggregation was performed in a dual-channel aggregometer (Chronolog, Hayertown, Pa.) using matched stir bars.
[…] Aliquots were removed at 15, 30, 45, 60 and 120 minutes and analyzed for both the ability to aggregate platelets and peptide cleavage.

[2] = target: T2, thrombin receptor on platelets (Homo sapiens, UniProt P25116); test: Dose response of peptide-induced platelet aggregation in platelet-rich plasma; assay type: cell-based; conditions: for EC50: 37° C., read-out: concentration to achieve half-maximal aggregation; for slope of platelet disaggregation phase: dose giving equivalent peak aggregation response
T2 construct: Citrated platelet-rich plasma (PRP; 307,000 platelets/μl, pH 7.0; 0.45 ml) was stirred in a cuvette at 37° C; endogenous in cells; host or cells: human platelets in citrated platelet-rich plasma
T2 sequence (P25116 22-425): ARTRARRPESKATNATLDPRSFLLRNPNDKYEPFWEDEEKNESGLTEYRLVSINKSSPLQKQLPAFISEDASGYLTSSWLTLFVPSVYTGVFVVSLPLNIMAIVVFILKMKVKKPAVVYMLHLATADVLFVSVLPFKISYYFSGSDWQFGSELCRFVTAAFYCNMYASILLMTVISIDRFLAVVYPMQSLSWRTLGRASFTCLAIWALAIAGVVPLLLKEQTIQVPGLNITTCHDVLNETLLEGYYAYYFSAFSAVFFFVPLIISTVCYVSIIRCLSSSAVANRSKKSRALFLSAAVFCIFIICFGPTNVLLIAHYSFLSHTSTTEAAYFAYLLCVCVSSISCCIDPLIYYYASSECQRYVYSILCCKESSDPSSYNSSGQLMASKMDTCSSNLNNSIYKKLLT
Description: as §1
Dose Response of Peptide-Induced Aggregation. Citrated platelet-rich plasma (PRP; 307,000 platelets/μl, pH 7.0; 0.45 ml) was stirred in a cuvette at 37° C. and then […] of Ser-Phe-Leu-Leu-Arg-Asn-Pro-Asn-Asp-Lys-Tyr (T-11) amino acids 1 to 11 of SEQ ID NO:1, (D-Ser)-Phe-Leu-Leu-Arg-Asn-Pro-Asn-Asp-Lys-Tyr ((DS)T-11) SEQ ID NO:11, Ser-Phe-Leu-Leu-Arg-Asn amino acids 1 to 6 of SEQ ID NO:1 or (iso-Ser)-Phe-Leu-Leu-Arg-Asn SEQ ID NO:7 peptide was added to achieve the final concentration as follows: Ser-Phe-Leu-Leu-Arg-Asn-Pro-Asn-Asp-Lys-Tyr amino acids 1 to 11 of SEQ ID NO:1 was added to a maximum concentration of 2.9 μM; (D-Ser)-Phe-Leu-Leu-Arg-Asn-Pro-Asn-Asp-Lys-Tyr SEQ IS NO:11 was added to a maximum concentration of 940 μM; Ser-Phe-Leu-Leu-Arg-Asn amino acids 1 to 6 of SEQ ID NO:1 was added to a maximum concentration of 1.7 μM; (iso-Ser)-Phe-Leu-Leu-Arg-Asn SEQ ID NO:7 was added up to a maximum concentration of 4.9 μM.

Row | Molecule | peptide activity after incubation with buffer rather than plasma [1] | EC50 ([2]; citrated PRP) | slope of platelet disaggregation phase ([2]; peptide at 0.7 μM) [U/min] | platelet aggregating activity (in words) ([2]; citrated PRP) | aggregation activity at 940 μM compared with T-11 ([2]; dose of 940 μM) | ability to achieve maximal aggregation ([2]; even at 1.8 μM) | slope of platelet disaggregation phase ([2]; peptide at 680 μM) [U/min] | slope of platelet disaggregation phase ([2]; peptide at 1.8 μM) [U/min]
1 | CC(C)C[C@H](NC(=O)[C@H](CC(C)C)NC(=O)[C@H](Cc1ccccc1)NC(=O)[C@@H](N)CO)C(=O)N[C@@H](CCCNC(=N)N)C(=O)N[C@@H](CC(N)=O)C(N)=O [SFLLRN] | no decrease in peptide activity | ~0.8 µM | 13 |  |  |  |  | 
2 | CC(C)C[C@H](NC(=O)[C@H](Cc1ccccc1)NC(=O)[C@H](N)CO)C(=O)N[C@@H](CC(C)C)C(=O)N[C@@H](CCCNC(=N)N)C(=O)N[C@@H](CC(N)=O)C(=O)N1CCC[C@H]1C(=O)N[C@@H](CC(N)=O)C(=O)N[C@@H](CC(=O)O)C(=O)N[C@@H](CCCCN)C(=O)N[C@@H](Cc1ccc(O)cc1)C(N)=O [(DS)T-11, (D-Ser)-Phe-Leu-Leu-Arg-Asn-Pro-Asn-Asp-Lys-Tyr] (H-[dS]FLLRNPNDKY-NH2) |  |  |  | only minimal aggregating activity; also recorded: only minimally active | less aggregation activity than 2.9 μM T-11 | unable to achieve maximal aggregation | 5 | 
3 | SFLLRNPNDKY-NH2 [T-11, Ser-Phe-Leu-Leu-Arg-Asn-Pro-Asn-Asp-Lys-Tyr] |  | ~3.3 µM and ~2.2 µM |  |  |  |  |  | 15
